# Experimental data from PubChem BioAssay AID493014 (National Center for Advancing Translational Sciences (NCATS), 2011).
# This is one part of the list. The main result of the screen is listed elsewhere. These columns were measured beside it and carry no call. The list favours compounds with an active or inconclusive main result. Words in brackets tell the shape of the fitted curve; partial curves, single points and poor fits give uncertain potencies.
# Experiment: qHTS Assay to Find Inhibitors of Chronic Active B-Cell Receptor Signaling
# Conditions: ABC-DLBCL IkBa-CBG/CBR reporter, luminescence ratio (green luciferase fused to IkBa over red control in TMD8 lymphoma cells), 4 h
# Procedure, shortened: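 Cell line TMD8 (human ABC DLBCL), stably expressing tet-inducible CBG68-IkBa fusion and CBR; IMDM/0.5% FBS; cpd up to 46 uM; dox induction, 4 h, 37C/5% CO2; dual luminescence; green/red ratio; MG132 control.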
# [1] = measured here: CBR red luminescence, cell number
# [2] = measured here: IkBa-CBG green luminescence
SMILES,AC50 [1],AC50 [2]
COc1cc(OC)c(OC)cc1/C=N/N(C)c1ccccc1,"5.8 µM [rising, partial curve, poor fit]",–
COc1ccc(OC)c2c1C(=O)C(Cl)=C(Cl)C2=O,"3.98 µM [falling, full curve]","2.24 µM [rising, full curve, poor fit]"
O=C(CCCn1cnc([N+](=O)[O-])n1)Nc1cccc2ccccc12,"2.82 µM [falling, partial curve, poor fit]",–
Fc1ccc(OCCOCCOc2cccc3[nH]ccc23)cc1,"12.6 µM [rising, partial curve, poor fit]",–
Cc1ccc(NC(=S)N(Cc2ccco2)C(C)c2cccs2)c(Cl)c1 (stereo not drawn),"35.5 µM [falling, single point]",–
O=C(Cc1cccs1)Nc1ccc([N+](=O)[O-])cc1,"0.447 µM [rising, partial curve, poor fit]",–
O=S(=O)(c1cccs1)N1CCN(c2ccnc3cc(Cl)ccc23)CC1,"17.8 µM [falling, single point]",–
CCOC(=O)N1CCC(N2CCCC(C(=O)c3cccc(OC(C)C)c3)C2)CC1 (stereo not drawn),"11.2 µM [falling, partial curve, poor fit]",–
C#CCN(C)CC/C=C1\c2ccccc2CSc2ccccc21,"29.1 µM [falling, single point]",–
C/C(=N\NC(=O)C1CCCC1)c1ccc(Cl)cc1,"0.794 µM [rising, partial curve, poor fit]",–
CCCCCC(=O)Nc1cccc2ccccc12,"2.51 µM [falling, full curve, poor fit]",–
COc1ccc(OCCSc2ncccn2)cc1,"6.51 µM [rising, partial curve, poor fit]",–
Cc1c(C(=O)Nc2cccc(Cl)c2)oc2ccc(S(=O)(=O)N3CCCCCC3)cc12,–,"0.631 µM [rising, full curve, poor fit]"
Cc1ccc(C(OCC(O)CNC(CO)C(O)c2ccc([N+](=O)[O-])cc2)c2ccccc2)cc1 (stereo not drawn),"7.08 µM [falling, partial curve, poor fit]","14.1 µM [rising, partial curve, poor fit]"
CC(=O)Nc1ccc(Nc2nc(C)c([N+](=O)[O-])c(Nc3ccccc3)n2)cc1,"29.1 µM [falling, single point]",–
O=c1[nH]c(/C=C\c2cccnc2)c([N+](=O)[O-])c(=O)[nH]1,"35.5 µM [falling, single point]",–
COc1ccccc1C(=O)NC1CCCc2ccccc21 (stereo not drawn),"8.91 µM [rising, partial curve, poor fit]",–
CCOC(=O)C(O)(NC(=O)c1cccnc1)C(F)(F)F (stereo not drawn),"2.31 µM [rising, full curve, poor fit]",–
COc1ccc(C2c3[nH]c4ccccc4c3CCN2C(=O)c2ccccc2C(C)=O)c(F)c1 (stereo not drawn),"11.2 µM [falling, partial curve]",–
COc1ccc(C(=O)NCc2ccc3c(c2)OCO3)c(OC)c1,"3.55 µM [falling, partial curve, poor fit]",–
COC(=O)c1c(NC(=O)CSc2ncn[nH]2)sc(C)c1C,"23.1 µM [falling, partial curve, poor fit]",–

# A few values from the results shown.
# In AC50 [1], COc1ccc(OCCSc2ncccn2)cc1 is listed with 6.51 µM [rising, partial curve, poor fit]
# In AC50 [1], COc1cc(OC)c(OC)cc1/C=N/N(C)c1ccccc1 is listed with 5.8 µM [rising, partial curve, poor fit]

# The results go on.

SMILES,AC50 [1],AC50 [2]
COC(=O)c1ccccc1S(=O)(=O)N1CCC(C(=O)N(C)CCOc2ccccc2)CC1,"29.1 µM [rising, single point]",–
O=c1cc(C(F)(F)F)[nH]c2c(OC(F)(F)F)cccc12,"35.5 µM [falling, single point]",–
Cc1cccc(/C(N)=N/OC(=O)CCCN2C(=O)c3ccccc3C2=O)c1,"5.62 µM [rising, single point]",–
Cc1nc2ccccn2c1P(=Nc1ccccc1)(N(C)C)N(C)C,"1.58 µM [rising, partial curve, poor fit]",–
CCc1nn(CC(=O)Nc2ccc(Br)c(C)c2)c(=N)s1,"35.5 µM [falling, single point]",–
O=C(Nc1c(Cl)cccc1Cl)C1CCC1,"0.708 µM [falling, partial curve, poor fit]",–
O=C(O)c1ccc2c(c1)C(=O)N(c1cc(C(=O)O)ccc1Br)C2=O,"2.06 µM [falling, partial curve, poor fit]",–
O=C(Cc1nc2ccccc2[nH]1)c1ccc([N+](=O)[O-])cc1,"11.2 µM [falling, partial curve, poor fit]",–
CC1=C(C(=O)OCc2ccccc2)C(c2ccsc2)NC(=O)N1C (stereo not drawn),"10 µM [falling, single point]",–
COc1ccc(-c2nn(-c3ccccc3)cc2/C=N/Nc2ccc(S(N)(=O)=O)cc2[N+](=O)[O-])cc1OC,"35.5 µM [rising, single point]",–
CC1Oc2ccccc2N(CC(=O)NC2CCCCC2)C1=O (stereo not drawn),"12.6 µM [falling, partial curve, poor fit]",–
COc1ccc(C/C(C)=N/NC(=O)C2COc3ccccc3O2)cc1 (stereo not drawn),"35.5 µM [rising, partial curve, poor fit]",–
Cc1ccc(/C=N/NC(=O)c2ccccn2)s1,"9.2 µM [falling, partial curve]",–
COC(=O)C1=C(C)NC(=O)NC1c1cc(Cl)ccc1OC (stereo not drawn),"29.1 µM [rising, single point]",–
Cc1oc(CSCCSCc2cc(C(=O)O)c(C)o2)cc1C(=O)O,"14.1 µM [rising, single point]",–
O=S(=O)(/N=C(/Nc1cccnc1)c1ccccc1)c1ccc(F)cc1F,"0.184 µM [falling, full curve, poor fit]",–
CCn1c(SC)nc2c(c1=O)SC(C)C2 (stereo not drawn),"7.31 µM [rising, partial curve, poor fit]",–
O=C(Cn1ncc2c(=O)oc3ccccc3c21)N(Cc1ccco1)C1CCCCC1,"3.66 µM [falling, full curve, poor fit]",–
O=C(COC(=O)c1cccs1)c1ccc2c(c1)OCCO2,"29.1 µM [falling, single point]",–
O=c1c(Cl)c(Cl)cnn1-c1ccccc1,"5.17 µM [falling, full curve]","5.17 µM [rising, full curve]"
C[C@H](Cc1ccccc1)Nc1ncnc2c1ncn2[C@@H]1O[C@H](CO)[C@@H](O)[C@H]1O,"2.31 µM [rising, partial curve]","1.84 µM [falling, partial curve]"

SMILES,AC50 [1],AC50 [2]
COc1ccc(C)cc1NC(=O)C(Sc1nnc(-c2cccs2)o1)c1ccccc1 (stereo not drawn),"1.64 µM [rising, full curve, poor fit]",–
O=C(OCc1ccccc1F)c1ccc2c(c1)OCCO2,"23.1 µM [rising, partial curve, poor fit]",–
CCn1cnc2c1c(=O)n(CC(=O)Nc1cc(C)on1)c(=O)n2Cc1ccccc1,"2.82 µM [rising, full curve]",–
O=C(Nc1cccc(O)c1)c1noc2c1CCc1ccccc1-2,"7.31 µM [falling, partial curve, poor fit]",–
Cc1ccc2nc(SCC(=O)Nc3ccc(F)cc3F)[nH]c2c1,"5.62 µM [falling, partial curve, poor fit]",–
CCc1ccc(NC(=O)c2cnn(-c3ccccc3)c2C)cc1,"4.61 µM [rising, full curve]",–
Cc1nc(C)c(C(=O)N/N=C/c2cn(C)c3ccccc23)s1,"6.51 µM [falling, partial curve, poor fit]",–
COc1cc(-c2c(-c3cc(OC)c(OC)c(OC)c3)noc2C)ccc1F,"3.16 µM [rising, full curve]","3.55 µM [falling, partial curve, poor fit]"
CC(=O)c1cc2c(cc1NC(=O)CN1CCC(Cc3ccccc3)CC1)OCO2,"0.651 µM [rising, partial curve, poor fit]",–
CCCCCCC(=O)c1c(C)[nH]c(C(=O)OCC)c1C,"0.58 µM [rising, full curve, poor fit]",–
O=C(COc1ccc2ccccc2c1)Nc1nccs1,"3.98 µM [falling, full curve, poor fit]",–
CCOC(=O)c1c(S(=O)(=O)N2CCCC(C(=O)Nc3ccccn3)C2)c(C)n(C)c1C (stereo not drawn),"2.82 µM [falling, full curve]",–
Cc1c(Cl)cccc1NC(=O)CC1SCCNC1=O (stereo not drawn),"0.103 µM [rising, full curve, poor fit]",–
CCOc1ccccc1NC(=O)c1c(NCc2cccs2)sc2c1CCC(C)C2 (stereo not drawn),"6.31 µM [rising, single point]",–
CCC(CC)C(=O)Nc1c2c(nn1-c1ccc(C)cc1)CS(=O)(=O)C2,"15.8 µM [rising, partial curve, poor fit]",–
COC(=O)c1cc(S(=O)(=O)C(C)C)c(S(C)=O)s1 (stereo not drawn),"15.8 µM [falling, single point]",–
CCOC(=O)c1c(C)[nH]c(C(=O)CSc2ccc(Cl)cc2)c1C,"3.26 µM [rising, full curve, poor fit]",–
CCCCNC(=O)c1onc(CSc2ccccc2F)c1C(=O)O,"35.5 µM [falling, single point]",–
COc1cc(S(=O)(=O)Nc2ccc(C)cc2)ccc1NC(=O)c1ccncc1,"29.1 µM [falling, single point]",–
COc1ccc(S(=O)(=O)N2CCc3ccccc3C2)cc1OC,"35.5 µM [falling, single point]",–
O=C(O)CCN1C(=O)c2ccccc2C1=O,–,"4.11 µM [rising, partial curve, poor fit]"
